No constants are given. Whether binding was seen depends on the method and setting. Some binding calls cover weakened binding; strength is not graded here.
What was measured:
rat cubilin [1] = molecular target: T1, rat cubilin (rat, UniProt O70244 33-3623); test: SPR; rat megalin or cubilin immobilised; chip pre-saturated with RAP (5 uM), then cysC 150 nM flowed; CaHBS running buffer; both purified
T1 construct: cubilin, rat, purified and immobilised on the SPR chip; probably the native receptor purified from rat kidney (surmised)

Protein sequences, listed by entry. Tags and fused reporters are not part of them. Residues count along the entry.
UniProt P98158, residues 26-4660: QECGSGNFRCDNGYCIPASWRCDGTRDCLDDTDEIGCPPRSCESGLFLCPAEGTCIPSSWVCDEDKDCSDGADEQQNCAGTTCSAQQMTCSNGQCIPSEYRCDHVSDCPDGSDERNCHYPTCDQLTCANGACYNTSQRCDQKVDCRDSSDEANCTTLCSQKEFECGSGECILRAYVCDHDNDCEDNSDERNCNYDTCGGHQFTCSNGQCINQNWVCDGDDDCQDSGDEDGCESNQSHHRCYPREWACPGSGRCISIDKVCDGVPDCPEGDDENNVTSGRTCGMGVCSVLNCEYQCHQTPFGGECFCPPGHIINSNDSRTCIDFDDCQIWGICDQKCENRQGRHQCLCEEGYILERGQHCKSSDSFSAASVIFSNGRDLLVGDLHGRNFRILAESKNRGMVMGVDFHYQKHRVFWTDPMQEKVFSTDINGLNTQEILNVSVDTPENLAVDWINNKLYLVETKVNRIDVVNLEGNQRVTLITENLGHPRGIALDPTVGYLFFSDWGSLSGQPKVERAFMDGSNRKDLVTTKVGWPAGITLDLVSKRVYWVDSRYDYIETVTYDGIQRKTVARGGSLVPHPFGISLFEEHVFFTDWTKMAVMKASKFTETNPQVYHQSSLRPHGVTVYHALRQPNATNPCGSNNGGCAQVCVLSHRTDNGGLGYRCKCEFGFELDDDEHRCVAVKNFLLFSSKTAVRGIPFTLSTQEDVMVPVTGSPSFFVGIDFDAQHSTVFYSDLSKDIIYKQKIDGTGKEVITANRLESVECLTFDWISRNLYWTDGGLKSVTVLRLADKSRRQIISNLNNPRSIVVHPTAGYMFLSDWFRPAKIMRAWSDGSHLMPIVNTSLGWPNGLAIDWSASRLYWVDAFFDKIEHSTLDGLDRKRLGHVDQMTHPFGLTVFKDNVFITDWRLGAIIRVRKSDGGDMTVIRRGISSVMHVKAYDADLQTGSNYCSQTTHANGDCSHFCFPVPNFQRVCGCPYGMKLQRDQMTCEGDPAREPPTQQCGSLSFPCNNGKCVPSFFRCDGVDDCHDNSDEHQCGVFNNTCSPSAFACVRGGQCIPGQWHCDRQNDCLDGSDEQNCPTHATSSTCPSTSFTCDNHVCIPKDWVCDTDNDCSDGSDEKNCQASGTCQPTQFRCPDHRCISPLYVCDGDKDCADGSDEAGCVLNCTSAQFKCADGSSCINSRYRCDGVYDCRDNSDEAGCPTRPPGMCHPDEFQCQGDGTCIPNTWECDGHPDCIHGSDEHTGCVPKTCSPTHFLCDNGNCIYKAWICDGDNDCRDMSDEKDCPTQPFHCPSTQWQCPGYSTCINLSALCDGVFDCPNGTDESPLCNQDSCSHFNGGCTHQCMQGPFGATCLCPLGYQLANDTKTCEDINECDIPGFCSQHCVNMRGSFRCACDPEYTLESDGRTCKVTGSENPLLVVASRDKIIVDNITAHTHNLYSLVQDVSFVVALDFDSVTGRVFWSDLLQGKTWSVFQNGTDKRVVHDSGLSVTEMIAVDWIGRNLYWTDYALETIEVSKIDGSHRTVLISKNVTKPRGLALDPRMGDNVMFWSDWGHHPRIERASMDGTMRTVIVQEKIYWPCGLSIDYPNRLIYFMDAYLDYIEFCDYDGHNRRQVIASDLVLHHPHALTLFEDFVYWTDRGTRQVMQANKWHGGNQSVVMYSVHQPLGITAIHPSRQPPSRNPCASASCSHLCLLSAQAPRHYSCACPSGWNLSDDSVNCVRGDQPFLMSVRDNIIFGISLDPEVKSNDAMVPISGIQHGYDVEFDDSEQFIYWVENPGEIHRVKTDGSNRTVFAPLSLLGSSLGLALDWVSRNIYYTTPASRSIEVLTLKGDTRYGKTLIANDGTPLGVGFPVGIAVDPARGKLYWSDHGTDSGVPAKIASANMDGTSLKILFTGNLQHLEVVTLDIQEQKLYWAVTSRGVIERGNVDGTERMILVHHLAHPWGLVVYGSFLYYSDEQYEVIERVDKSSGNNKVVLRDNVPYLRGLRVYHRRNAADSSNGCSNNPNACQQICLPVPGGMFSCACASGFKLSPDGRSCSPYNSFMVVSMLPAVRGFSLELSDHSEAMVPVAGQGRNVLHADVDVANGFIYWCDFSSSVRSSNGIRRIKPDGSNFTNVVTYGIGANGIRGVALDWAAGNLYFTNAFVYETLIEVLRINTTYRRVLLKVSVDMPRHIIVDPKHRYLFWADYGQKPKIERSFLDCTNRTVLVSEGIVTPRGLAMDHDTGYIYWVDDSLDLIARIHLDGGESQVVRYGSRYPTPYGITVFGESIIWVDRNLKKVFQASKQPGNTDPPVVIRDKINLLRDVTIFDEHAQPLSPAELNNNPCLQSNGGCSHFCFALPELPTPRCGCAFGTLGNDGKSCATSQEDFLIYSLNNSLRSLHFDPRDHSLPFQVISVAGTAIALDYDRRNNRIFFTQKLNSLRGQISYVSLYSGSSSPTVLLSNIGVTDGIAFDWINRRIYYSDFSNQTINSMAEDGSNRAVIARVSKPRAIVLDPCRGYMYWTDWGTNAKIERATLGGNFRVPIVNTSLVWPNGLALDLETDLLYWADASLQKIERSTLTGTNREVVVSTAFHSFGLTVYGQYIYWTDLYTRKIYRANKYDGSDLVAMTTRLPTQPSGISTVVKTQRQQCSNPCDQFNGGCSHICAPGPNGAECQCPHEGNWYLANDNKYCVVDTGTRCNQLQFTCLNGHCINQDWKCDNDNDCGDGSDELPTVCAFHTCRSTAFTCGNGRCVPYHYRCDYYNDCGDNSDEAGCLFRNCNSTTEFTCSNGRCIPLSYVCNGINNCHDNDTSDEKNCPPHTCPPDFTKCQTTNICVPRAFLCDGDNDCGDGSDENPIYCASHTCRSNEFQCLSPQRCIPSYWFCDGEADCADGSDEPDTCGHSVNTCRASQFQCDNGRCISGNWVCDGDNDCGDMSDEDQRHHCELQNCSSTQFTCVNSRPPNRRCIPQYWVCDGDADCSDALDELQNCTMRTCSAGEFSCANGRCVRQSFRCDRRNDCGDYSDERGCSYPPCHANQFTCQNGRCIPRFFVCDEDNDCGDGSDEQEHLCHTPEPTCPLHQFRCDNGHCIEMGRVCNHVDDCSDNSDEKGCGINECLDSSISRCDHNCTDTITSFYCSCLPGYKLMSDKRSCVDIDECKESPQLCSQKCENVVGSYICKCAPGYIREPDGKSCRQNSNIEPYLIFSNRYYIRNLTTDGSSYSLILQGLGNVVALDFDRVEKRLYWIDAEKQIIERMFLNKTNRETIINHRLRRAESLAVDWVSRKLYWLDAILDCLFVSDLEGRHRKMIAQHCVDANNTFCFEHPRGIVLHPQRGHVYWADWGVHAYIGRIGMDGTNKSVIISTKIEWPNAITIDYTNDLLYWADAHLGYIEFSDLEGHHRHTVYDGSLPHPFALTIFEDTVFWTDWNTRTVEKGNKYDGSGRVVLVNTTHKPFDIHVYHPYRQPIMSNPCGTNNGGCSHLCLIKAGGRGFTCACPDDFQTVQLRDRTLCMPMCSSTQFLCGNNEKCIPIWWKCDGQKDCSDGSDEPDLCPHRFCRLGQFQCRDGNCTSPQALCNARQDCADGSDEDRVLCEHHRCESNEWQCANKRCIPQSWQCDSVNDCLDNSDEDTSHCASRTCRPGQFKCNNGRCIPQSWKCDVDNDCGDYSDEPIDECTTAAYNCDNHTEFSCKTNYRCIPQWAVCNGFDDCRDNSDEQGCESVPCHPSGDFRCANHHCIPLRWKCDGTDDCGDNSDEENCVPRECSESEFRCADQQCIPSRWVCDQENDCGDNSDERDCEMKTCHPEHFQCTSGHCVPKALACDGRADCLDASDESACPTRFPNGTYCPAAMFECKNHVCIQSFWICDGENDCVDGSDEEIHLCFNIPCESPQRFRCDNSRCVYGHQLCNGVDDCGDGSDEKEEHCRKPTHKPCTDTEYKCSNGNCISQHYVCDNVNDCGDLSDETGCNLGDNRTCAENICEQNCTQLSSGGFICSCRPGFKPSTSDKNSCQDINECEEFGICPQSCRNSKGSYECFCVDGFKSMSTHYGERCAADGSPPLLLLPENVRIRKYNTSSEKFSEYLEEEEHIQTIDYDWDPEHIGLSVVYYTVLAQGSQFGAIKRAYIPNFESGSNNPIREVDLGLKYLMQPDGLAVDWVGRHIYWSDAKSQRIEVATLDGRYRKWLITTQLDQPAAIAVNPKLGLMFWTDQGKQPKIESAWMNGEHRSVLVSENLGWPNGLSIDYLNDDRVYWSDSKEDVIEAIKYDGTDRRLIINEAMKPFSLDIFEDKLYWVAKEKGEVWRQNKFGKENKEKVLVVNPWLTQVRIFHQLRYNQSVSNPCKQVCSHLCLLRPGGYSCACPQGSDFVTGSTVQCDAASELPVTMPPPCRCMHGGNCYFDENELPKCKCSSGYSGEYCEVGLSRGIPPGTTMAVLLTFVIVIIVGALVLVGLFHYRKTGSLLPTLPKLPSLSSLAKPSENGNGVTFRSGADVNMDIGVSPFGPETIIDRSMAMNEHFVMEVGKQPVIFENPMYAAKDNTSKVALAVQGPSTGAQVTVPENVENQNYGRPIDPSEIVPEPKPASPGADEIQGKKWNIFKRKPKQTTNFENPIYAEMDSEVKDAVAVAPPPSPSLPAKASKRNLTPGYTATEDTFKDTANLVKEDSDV
UniProt P30533, residues 35-357: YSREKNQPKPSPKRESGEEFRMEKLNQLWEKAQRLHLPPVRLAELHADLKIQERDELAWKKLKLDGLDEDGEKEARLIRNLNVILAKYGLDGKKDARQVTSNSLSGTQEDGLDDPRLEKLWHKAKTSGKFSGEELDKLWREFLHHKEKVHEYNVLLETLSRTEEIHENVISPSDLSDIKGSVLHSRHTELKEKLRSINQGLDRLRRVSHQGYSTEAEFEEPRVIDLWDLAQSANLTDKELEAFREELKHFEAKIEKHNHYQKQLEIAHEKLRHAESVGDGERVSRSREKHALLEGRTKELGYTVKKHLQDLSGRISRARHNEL

rat megalin [2] = molecular target: T2, rat megalin (rat, UniProt P98158 26-4660); test: as above
T2 construct: megalin, rat, purified and immobilised on the SPR chip; probably the native receptor purified from rat kidney (surmised)

rat cubilin [3] = molecular target: T1, rat cubilin; test: as above; remark: listed apart in the source
rat megalin [4] = molecular target: T2, rat megalin; test: as above; remark: listed apart in the source
rat cubilin [5] = molecular target: T1, rat cubilin; test: SPR; data not shown; rat megalin or cubilin immobilised; 20 mM EDTA added to the running buffer, cysC at 150 and 300 nM; both purified
rat megalin [6] = molecular target: T2, rat megalin; test: as above

Measured: binding

receptor associated protein (RAP) (from UniProt P30533 35-357)
binds: rat cubilin [1] | rat megalin [2]

B1: human cystatin C (natural protein, UniProt P01034 27-146, looked up)
chain: SSPGKPPRLVGGPMDASVEEEGVRRALDFAVGEYNKASNDMYHSRALQVVRARKQIVAGVNYFLDVELGRTTCTKTQPNLDNCPFHDQPHLKRKAFCSFQIYAVPWQGTMTLSKSTCQDA
notes: also called cysC
binds: rat cubilin [3] | rat megalin [4] | rat cubilin [5] | rat megalin [6]

— paper PMC5456377, “Megalin dependent urinary cystatin C excretion in ischemic kidney injury in rats” (PLoS ONE, 2017)
